Laboratory results published in PMC13157976.

Molecular target: T1, MBD8 (methyl-CpG-binding domain protein 8) (UniProt Q9LME6)
T1 sequence (looked up, limits assumed): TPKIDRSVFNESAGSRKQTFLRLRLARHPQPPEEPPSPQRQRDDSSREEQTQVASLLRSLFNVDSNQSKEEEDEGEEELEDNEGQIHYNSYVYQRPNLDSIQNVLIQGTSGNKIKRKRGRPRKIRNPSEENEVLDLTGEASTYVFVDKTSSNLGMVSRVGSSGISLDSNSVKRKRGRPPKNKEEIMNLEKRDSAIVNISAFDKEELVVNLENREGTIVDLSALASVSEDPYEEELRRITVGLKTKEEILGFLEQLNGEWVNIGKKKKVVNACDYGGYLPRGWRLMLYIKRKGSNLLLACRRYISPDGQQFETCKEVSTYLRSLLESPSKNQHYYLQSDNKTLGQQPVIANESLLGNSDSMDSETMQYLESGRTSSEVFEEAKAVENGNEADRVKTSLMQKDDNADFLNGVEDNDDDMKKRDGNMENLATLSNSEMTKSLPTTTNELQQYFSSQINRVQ
Assay: EMSA
Conditions: EMSA: 0.2 uM DNA, 0-1.6 uM MBD8, 20 mM Tris-HCl pH 7.5, 150 mM NaCl, 10% glycerol, 2 mM 2-mercaptoethanol, 25 C, 30 min, 8% native PAGE in 0.5x TBE, SYBR Green I, recombinant protein, protein details: N-terminal 6xHis and Halo

Sequence: TTCTTGCGATTCAACATTCAGCTCTTCGATTCAACATTCAGCTCTTCGTT (double strand) [CG, fully methylated (mCG/mCG)]
- binding result (5-methyl-dC at sense 7, 27, 47 and antisense 3, 23, 43, letters put together from the description): binds

Sequence: TTCTTGCCTATTCAACATTCACTGTGCATGTCAACATTCAGCTCGGGCCA (double strand) [CHH, hemimethylated]
- binding result (5-methyl-dC on one strand only (sense 7, 27, 48 or antisense 4, 25, 45; strand not given), letters put together from the description): binds

Sequence: TTCTTGCGATTCAACATTCAGCTCTTCGATTCAACATTCAGCTCTTCGTT (double strand) [CG, unmethylated (uCG/uCG)]
- binding result: binds

Sequence: TTCTTGCGATTCAACATTCAGCTCTTCGATTCAACATTCAGCTCTTCGTT (double strand) [CG, hemimethylated]
- binding result (5-methyl-dC on one strand only (sense 7, 27, 47 or antisense 3, 23, 43; strand not given), label: FAM only if methylated sense strand was used, letters put together from the description): binds

Sequence: TTCTTGCCGATTAACATTCAGCTCTTCAGATTCAACATTCACTCTTCTGT (double strand) [CHG, hemimethylated]
- binding result (5-methyl-dC on one strand only (sense 7, 27, 47 or antisense 2, 22, 42; strand not given), letters put together from the description): binds

Sequence: TTCTTGCCTATTCAACATTCACTGTGCATGTCAACATTCAGCTCGGGCCA (double strand) [CHH, unmethylated (uCHH/uCHH)]
- binding result: binds

Sequence: TTCTTGCCGATTAACATTCAGCTCTTCAGATTCAACATTCACTCTTCTGT (double strand) [CHG, unmethylated (uCHG/uCHG)]
- binding result: binds

Sequence: TTCTTGCCGATTAACATTCAGCTCTTCAGATTCAACATTCACTCTTCTGT (double strand) [CHG, fully methylated (mCHG/mCHG)]
- binding result (5-methyl-dC at sense 7, 27, 47 and antisense 2, 22, 42, letters put together from the description): binds

Sequence: TTCTTGCCTATTCAACATTCACTGTGCATGTCAACATTCAGCTCGGGCCA (double strand) [CHH, fully methylated (mCHH/mCHH)]
- binding result (5-methyl-dC at sense 7, 27, 48 and antisense 4, 25, 45, letters put together from the description): binds

The exact form of at least one protein or probe is not confirmed. At least one verdict rests on a figure or table, not on a statement of the authors. Protein sequences can lack the tags named with them.
